Measured values reported in PubChem BioAssay AID1439 (NMMLSC, 2008).
“And” between values parts separate entries of the source, which are not always exact repeats. Equal entries are not always repeated. Screen size: about 220,000 compounds; about 770 (0.35%) were called active. This list was built around the results that the source calls inconclusive (neither active nor inactive); the mix of calls is not that of the screen. Cut-off read from the data, not from the text of the source: active = binding response below about 49% or above about 150%; inconclusive = no clear call, values can overlap the other calls; inactive = in between.

Chains of the proteins cited; added tags and fusions are not shown.
UniProt P09471, whole entry, looked up: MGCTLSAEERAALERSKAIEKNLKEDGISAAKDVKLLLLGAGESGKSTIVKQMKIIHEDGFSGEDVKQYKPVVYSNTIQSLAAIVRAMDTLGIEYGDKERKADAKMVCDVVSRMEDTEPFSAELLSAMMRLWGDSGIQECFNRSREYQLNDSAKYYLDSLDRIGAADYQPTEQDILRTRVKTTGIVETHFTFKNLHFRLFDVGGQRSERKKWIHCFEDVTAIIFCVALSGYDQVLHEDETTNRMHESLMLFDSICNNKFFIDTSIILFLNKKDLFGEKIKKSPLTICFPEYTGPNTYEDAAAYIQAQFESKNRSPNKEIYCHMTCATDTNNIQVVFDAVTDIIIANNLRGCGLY

biological target: Guanine nucleotide-binding protein G(o) subunit alpha (Homo sapiens) (UniProt P09471); assay: RGS7-Galphao binding modulators, primary screen, biochemical, multiplexed bead flow cytometry (AID 1439); details: at 10 µM, actives lie on both sides;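 note: fluorescent Galphao held in activated GDP-AlF4 state binding bead-coupled RGS7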

SMILES | binding response (% of control)
COC(=O)c1sc(C(F)(F)F)c(-c2ccccc2)c1S(=O)(=O)N1CCCC1 | inconclusive: 76.4%
CN(C)S(=O)(=O)c1cccc(-c2csc(=Nc3ccccc3)n2CCCN2CCOCC2)c1 | inconclusive: 91.8%
O=C(O)Cc1ccc(NS(=O)(=O)c2ccccc2Br)cc1 | inconclusive: 109%
COc1cc(C(=O)N/N=C/c2ccccn2)cc(OC)c1OC | inconclusive: -191%
CC(=O)Nc1ccc(NC(=O)C(C)Sc2nnc(-c3cccs3)o2)cc1 (configuration not stated) | inconclusive: -198%
CCCn1c(C)cc(C(=O)COc2ccc(-c3nnco3)cc2)c1C | inactive: 95.8%
Cc1ccc(/C=C/C(=O)Nc2ccccc2C(N)=O)cc1 | inactive: 97.2%
Clc1ccc(-c2csc(Nc3cccnc3)n2)cc1 | inconclusive: 98.8%
Cc1cc(C(=O)OCC(=O)NC(C)C)c(C)o1 | inactive: 102%
CCCCn1c(=O)c(CCC(=O)OCC(=O)NCc2ccc(OC)c(OC)c2)nc2ccccc21 | inactive: 105%
COC(=O)c1ccccc1S(=O)c1snnc1C (configuration not stated) | inactive: 101%
CN(C)c1ccc(C(=O)Nc2ccc(CN3CCS(=O)(=O)CC3)cc2)cc1 | inconclusive: 65.8%
COc1ccc(S(=O)(=O)Nc2ccccc2OC)cc1NC(=O)CC1CC2CCC1C2 (configuration not stated) | inactive: 104%
CCOC(=O)/C(N=Nc1ccc(C(=O)O)cc1[N+](=O)[O-])=C(\C)O | inconclusive: 105%
COCCCN1C(=O)c2ccc(C(=O)OCC(=O)N(C)c3ccccc3)cc2C1=O | inconclusive: 104%
NC(=O)CC(NC(=O)c1ccc(Br)cc1)c1ccc(NCCc2ccc(F)cc2)c([N+](=O)[O-])c1 (configuration not stated) | inconclusive: 106%
CCOc1cc(CNC2CCCC2)c(Cl)cc1OCC(=O)Nc1ccccc1 | inconclusive: 108%
CC(C)(C)NC(=O)Cc1ccc(Cl)c(Cl)c1 | inconclusive: 106%
Cc1nc2ccccc2c2c1C(=O)N(c1cccc(C(=O)O)c1)C2=O | inconclusive: 92.3%
O=C(NCCSc1ccc(Br)cc1)c1ccccc1 | inconclusive: 95.6%
CS(=O)(=O)CCSc1ncccc1C(=O)NCc1cccs1 | inconclusive: 103%
CCOC(=O)c1sc(=S)n(C)c1NC(=O)c1ccc(OC)cc1 | inconclusive: 107%
COC(=O)[C@@H](NC(=O)Nc1cccc(Br)c1)C(C)C | inactive: 102%

SMILES | binding response (% of control)
O=C(CSCc1c(F)cccc1Cl)NCc1ccncc1 | inconclusive: 108%
CNCc1ccccc1OCc1ccccc1F | inconclusive: 85.3%
COC(=O)CC(NC(=O)c1cccs1)c1ccc(OC)c(OC)c1 (configuration not stated) | inactive: 101%
N=c1sccn1CC(=O)Nc1cccc(S(N)(=O)=O)c1 | inconclusive: 89.8%
CC(CNS(=O)(=O)c1ccccc1)Sc1ncccn1 (configuration not stated) | inconclusive: 106%
Nc1c(C=C2C=CC(=O)C=C2)c(=O)nc2snc(SCc3ccccc3)n12 | inconclusive: 73.7%
Cc1ncc(CO)c(/C=N/NC(=O)c2cc3c(s2)CCCC3)c1O | inconclusive: 55%
CCCOc1nc(SCCC)nc2c1cnn2-c1ccccc1 | inconclusive: 124%
COc1ccccc1NCCC#N | inactive: 102%
COC(=O)C1=C(C)Nc2nc3ccccc3n2C1c1cc(OC)c(OC)c(OC)c1 (configuration not stated) | inconclusive: 15.1%
C(=C\c1ccc2ccccc2n1)/c1ccccc1 | inconclusive: 108%
CCOc1ccc(-c2nn(-c3ccccc3)cc2/C=C2\SC(N)=NC2=O)cc1C | active: 15.8%
CCOC(=O)c1nnn2c1nc(N1CCN(C)CC1)c1ccccc12 | inconclusive: 44.4%
COc1ccc(CCNCC(O)COc2cccc(Br)c2)cc1OC (configuration not stated) | inconclusive: 113%
COc1ccc(CN2CCN(c3ccc(F)cc3)CC2)c(OC)c1OC | inactive: 138%
COc1ccc(OC)c(Nc2nc3ccccc3n3cnnc23)c1 | inconclusive: 105%
COC(=O)c1ccccc1NC(=O)Nc1ccc(C)cn1 | inconclusive: 105%
CCc1ccc(N2CC(C(=O)Nc3ccc(C)c(S(=O)(=O)N4CCOCC4)c3)CC2=O)cc1 (configuration not stated) | active: 152% [activator]
Cc1ccc(-c2nn(-c3ccccc3)cc2NC(=O)CCl)cc1 | inconclusive: 139%
CC1=CC(=C(C#N)C#N)C=C(C)N1CCC(C)C | inconclusive: 91.8%
Cc1coc2c1C(=O)C(=O)c1c-2ccc2c(C)cccc12 | inconclusive: 44.4%
Cc1ccc(-c2csc3nc(C(C)C)oc(=O)c23)c(C)c1 | inconclusive: 298%
Cc1cc2ccccc2n2c(SCC(=O)NCC3CCCO3)nnc12 (configuration not stated) | inactive: 86.5%

SMILES | binding response (% of control)
O=C(O)/C(=C\c1cn(-c2ccccc2)nc1-c1cccnc1)NC(=O)c1ccccc1 | inconclusive: 114%
COC(=O)c1cccc2nc3c(C(C)O)cccc3nc12 (configuration not stated) | inconclusive: 76.7%
C=CCOc1c(/C=N\NC(N)=O)cccc1OC | inconclusive: -102%
COCCn1nnnc1CN1CCSCC1 | inactive: 99.2%
Cc1ccccc1-n1c(O)c(C=NC2CCS(=O)(=O)C2)c2ccccc2c1=O (configuration not stated) | inconclusive: 90.5%
CCNc1nc(NC(N)=S)nc(NC(C)(C)C)n1 | inactive: 105%
CCCC(=O)Nc1c(-c2ccccc2)c(=O)c(C)nn1-c1ccccc1 | inconclusive: 210%
OC(CNCCC(c1ccccc1)c1ccccc1)COc1ccccc1 (configuration not stated) | inconclusive: 119%
O=c1c2ccccc2ncn1-c1ccc(Cl)cc1 | inconclusive: 77.3%
O=[N+]([O-])c1ccccc1OCCOc1ccccc1[N+](=O)[O-] | inconclusive: 62.9%
COc1cccc(CC2(CO)CCCN(Cc3cc4ccccc4[nH]3)C2)c1 (configuration not stated) | inactive: 99.2%
O=C(NCc1ccccc1)Nc1cccn(Cc2ccccc2Cl)c1=O | inactive: 105%
CCOc1ccccc1NC(=O)Cn1[nH]c(=O)c2ccccc2c1=O | inconclusive: 96.7%
Cc1ccc(N2CN(Cc3cccnc3)CNC2=S)cc1 | inactive: 102%
CCn1c(SCC(=O)OC)nc2sc3c(c2c1=O)CC(C)(C)OC3 | inconclusive: 120%
COC(=O)C(=O)/C=C(\O)c1c(C)cc(C)cc1C | inconclusive: 98.1%
O=S(=O)(c1ccccc1)N(CC1CO1)c1cccc2ccccc12 (configuration not stated) | inactive: 105%
O=C(O)c1ccccc1CSc1nnc2c(n1)[nH]c1ccccc12 | inconclusive: 95.7%
O=C(Nc1ccccc1)N1CCCN(c2ccc(C(F)(F)F)cc2[N+](=O)[O-])CC1 | inconclusive: 300%
O=C(COC(=O)c1cc(=O)[nH]c2ccccc12)Nc1cccc(S(=O)(=O)N2CCOCC2)c1 | inconclusive: 140%
O/N=C1\CCCc2c1nc(-c1ccccc1F)n2O | inconclusive: 112%
N/C(CC(=O)NC1CCCCC1)=N\OCC(=O)Nc1ccc(Cl)c(Cl)c1 | inconclusive: 104%
Cc1ccccc1NC(=S)N1CCC(NC(=O)c2ccco2)CC1 | inactive: 94.2%

SMILES | binding response (% of control)
COc1ccccc1N1CCN(/N=C\C(Br)=C\c2ccccc2)CC1 | inconclusive: 107%
C=C1c2cc(C)ccc2NC(=O)N1c1ccc(C)cc1 | inactive: 96.8%
C/C(=N\NC(=O)CN(c1ccc(Oc2ccccc2)cc1)S(C)(=O)=O)C(C)(C)C | inactive: 95.5%
CCCn1ncc(CN2CCN(CCc3ccccc3)C(CCO)C2)c1C (configuration not stated) | inactive: 110%
N#C/C(=C1\CCCN1)c1nc2ccccc2c(=O)[nH]1 | inactive: 99.8%
COc1ccc(CCNC(=O)COc2ccc(C)nc2[N+](=O)[O-])cc1OC | inactive: 104%
COc1ccc(Cc2c(O)nc(SCC(=O)NC34CC5CC(CC(C5)C3)C4)[nH]c2=O)cc1 | inconclusive: 114% and inconclusive: 121%
N=c1c2c(ncn1CCCO)Oc1c(ccc3ccccc13)C2c1ccccc1 (configuration not stated) | inconclusive: 87.8%
COC(CNC(=O)CNC(=S)N(CCCN1CCOCC1)Cc1cccs1)OC | inconclusive: 103%
C=CCN(Cc1cn(C)nc1-c1cccc(Cl)c1)C1CCS(=O)(=O)C1 (configuration not stated) | inactive: 93.6%
CCN(CC(=O)NC(C)(C)C)Cc1nc2c(Br)cc(Br)cc2c(=O)[nH]1 | inconclusive: 92.6%
CCOc1cc(/C=C2\C(=O)N(Cc3ccco3)C(C)=C2C(=O)OC)ccc1O | inconclusive: 72.7%
COc1ccc(NC(=O)c2cc3c(=O)n4ccccc4nc3n2C)cc1OC | inactive: 107%
CCN(CC)P(=O)(Nc1ccc([N+](=O)[O-])cc1)c1c(C)nn(CCC#N)c1NC(=O)c1ccc(Cl)cc1Cl (configuration not stated) | inconclusive: 96.6%
COc1ccc(C2(C(=O)NCc3ccccc3Cl)CCOCC2)cc1OC | inactive: 99.8%
COc1ccc(OC)c(NC(=O)CN(C)S(=O)(=O)c2ccc(Cl)cc2)c1 | inconclusive: 92.1%
CCN1CCN(C(=O)Cn2cnc3sc(C)c(S(=O)(=O)N4CCN(c5ncccn5)CC4)c3c2=O)CC1 | inactive: 98%
COc1cccc(Nc2nc(N)c([N+](=O)[O-])c(NCc3ccccc3)n2)c1 | inconclusive: 42.6%
COC(=O)Nc1ccc(S(=O)(=O)N2CCC(C(=O)N3CCCCC3C)CC2)cc1 (configuration not stated) | inconclusive: 78.7%
CNC(=O)c1ccccc1Sc1ccccc1CO | inconclusive: 72.4%
N=C1/C(=C/c2coc3ccccc3c2=O)C(=O)N=C2SC(c3ccco3)=NN12 | inconclusive: 71.5%
CCOc1ccc(S(=O)(=O)N(C)c2ccc(OCC(=O)NCc3cccnc3)cc2)cc1 | inconclusive: 85.8%
O=C(O)CC1S/C(=N\N=C2CCCCCCC2)N(c2ccccc2)C1=O (configuration not stated) | inconclusive: 114%

An excerpt of these results, as labelled records:
O=C(NCc1ccccc1)Nc1cccn(Cc2ccccc2Cl)c1=O
  binding response (% of control): inactive: 105%
CCOc1ccccc1NC(=O)Cn1[nH]c(=O)c2ccccc2c1=O
  binding response (% of control): inconclusive: 96.7%
Cc1ccc(N2CN(Cc3cccnc3)CNC2=S)cc1
  binding response (% of control): inactive: 102%
CCn1c(SCC(=O)OC)nc2sc3c(c2c1=O)CC(C)(C)OC3
  binding response (% of control): inconclusive: 120%
